# The list does not hold the whole screen: it gathers tests that were run many times, whatever their T/C, doses with no T/C, and many T/C values between a quarter and a half above the control. Further doses and runs are listed elsewhere. T/C gives the treated animals as a percentage of the vehicle group. Some entries give survivors of the animals treated and no T/C: the source files T/C as zero there, which appears to mark a toxic dose or a test without result, not a measured value. Some doses without a T/C left all or most animals alive at the check, yet need not have been tolerated: survival well below the control is almost never listed, so the zero probably covers shortened survival too. Counts of survivors are from the toxicity check (mostly the fifth day) where no day follows; animals may have died later. Schedules are NCI's codes, read here as Q, the interval in days (D) or hours (H), X, the number of doses. Some entries were tested several times; their values stand side by side, smallest first. Signs of the kind (2×) stand for listed records that agree. Where survival is the endpoint, the PubChem record calls one and a half times the control and up active, and a quarter to a half above the control has no call in these data; cut-offs in other NCI protocols can differ. Some T/C values carry the count of animals alive at the toxicity check (mostly the fifth day); where none is given, no animal had died by that day.
# Tested on: P388 leukemia ip, CD2F1 mice, survival T/C
# Assay: NCI In Vivo Anticancer Drug Screen. Data for tumor model P388 Leukemia (intraperitoneal) in CD2F1 (CDF1) mice
# Conditions: T/C endpoint: median survival time, higher T/C = longer survival
# [1] = dose: 100.0 mg/kg/injection, schedule: Q01DX005 (ip), vehicle: Klucel (hydroxypropylcellulose) (HPC)
# [2] = dose: 200.0 mg/kg/injection, schedule: Q01DX005 (ip), vehicle: Klucel (hydroxypropylcellulose) (HPC)
# [3] = dose: 25.0 mg/kg/injection, schedule: Q01DX009 (ip), vehicle: saline with Tween-80
# [4] = dose: 100.0 mg/kg/injection, schedule: Q01DX009 (ip), vehicle: saline with Tween-80
# [5] = dose: 200.0 mg/kg/injection, schedule: Q01DX009 (ip), vehicle: saline with Tween-80
# [6] = dose: 400.0 mg/kg/injection, schedule: Q01DX009 (ip), vehicle: saline with Tween-80
# [7] = dose: 100.0 mg/kg/injection, schedule: Q01DX005 (ip), vehicle: saline with Tween-80
# [8] = dose: 200.0 mg/kg/injection, schedule: Q01DX005 (ip), vehicle: saline with Tween-80
# [9] = dose: 25.0 mg/kg/injection, schedule: Q01DX009 (ip), vehicle: Klucel (hydroxypropylcellulose) (HPC)
# [10] = dose: 50.0 mg/kg/injection, schedule: Q01DX009 (ip), vehicle: Klucel (hydroxypropylcellulose) (HPC)
# [11] = dose: 200.0 mg/kg/injection, schedule: Q01DX005 (ip), vehicle: saline
# [12] = dose: 12.5 mg/kg/injection, schedule: Q01DX001 (ip), vehicle: water
# [13] = dose: 240.0 mg/kg/injection, schedule: Q01DX005 (ip), vehicle: saline with Tween-80
structure (smiles),measurement,setting,value
O=C1C(Cl)=C(NCCC2CCCN3CCCCC23)C(=O)c2ccccc21 (centres undefined),T/C,"dose: 50.0 mg/kg/injection, schedule: Q01DX005 (ip), vehicle: Klucel (hydroxypropylcellulose) (HPC), evaluated on day 20",102 % of control (2×)
same,T/C,"dose: 50.0 mg/kg/injection, schedule: Q01DX005 (ip), vehicle: Klucel (hydroxypropylcellulose) (HPC), evaluated on day 30",100 and 120 % of control
same,survivor count,[1],6 of 6
same,survivor count,[2],0 of 6
CCOC(=O)c1cc(=O)oc(=O)[nH]1,survivor count,"dose: 50.0 mg/kg/injection, schedule: Q04DX003 (ip), vehicle: Klucel (hydroxypropylcellulose) (HPC)",6 of 6
CC(=O)C1=CC(C)(C)OC1=O,survivor count,"dose: 400.0 mg/kg/injection, schedule: Q04DX002 (ip), vehicle: saline with Tween-80",3 of 6
COC(=O)c1cc(=O)n(-c2ccccc2OC)c(SC)n1,survivor count,"dose: 200.0 mg/kg/injection, schedule: Q04DX002 (ip), vehicle: Klucel (hydroxypropylcellulose) (HPC)",4 of 6
same,survivor count,"dose: 400.0 mg/kg/injection, schedule: Q04DX002 (ip), vehicle: Klucel (hydroxypropylcellulose) (HPC)",0 of 6
C=C1C(=O)OC2CC(C)C3CC(O)OC(O)C3(C)CC12 (centres undefined),survivor count,"dose: 6.25 mg/kg/injection, schedule: Q01DX009 (ip), vehicle: saline",4 of 6
same,survivor count,"dose: 12.5 mg/kg/injection, schedule: Q01DX009 (ip), vehicle: saline",2 of 6
same,survivor count,[3],3 of 6
same,survivor count,"dose: 50.0 mg/kg/injection, schedule: Q01DX009 (ip), vehicle: saline with Tween-80",0 of 6 (2×)
same,survivor count,[4],0 of 6 (2×)
same,survivor count,[5],0 of 6 (2×)
Cc1nc(-c2ccccc2-n2cccc2)no1,survivor count,[5],2 of 6
c1ccc2c(c1)nc1n2CC2(CS1)CSc1nc3ccccc3n1C2,survivor count,[5],6 of 6
O=c1c2ccccc2[nH]c(=S)n1-c1cccc(C(F)(F)F)c1,survivor count,[6],5 of 6
CN(C)c1ccc2c(c1)C(=O)N(OS(C)(=O)=O)C2=O,survivor count,[7],6 of 6
same,survivor count,[8],0 of 6
COc1ccc(CC2C(=O)NC(C)C(=O)N(C)C3C(=O)N(C)C(Cc4ccc(O)c(c4)Oc4ccc(cc4)C3O)C(=O)NC(C)C(=O)NC(C)C(=O)N2C)cc1 (centres undefined) (tested in a mixture with another compound),T/C,"dose: 0.12 mg/kg/injection, schedule: Q01DX009 (ip), vehicle: Klucel (hydroxypropylcellulose) (HPC)",145 % of control
same,T/C,"dose: 0.25 mg/kg/injection, schedule: Q01DX009 (ip), vehicle: Klucel (hydroxypropylcellulose) (HPC)",139 % of control
same,T/C,"dose: 0.5 mg/kg/injection, schedule: Q01DX009 (ip), vehicle: Klucel (hydroxypropylcellulose) (HPC)",149 % of control
same,T/C,"dose: 125.0 micrograms/kg/injection, schedule: Q01DX009 (ip), vehicle: saline",132 % of control
same,T/C,"dose: 2000.0 micrograms/kg/injection, schedule: Q01DX009 (ip), vehicle: saline",144 % of control
same,survivor count,"dose: 4000.0 micrograms/kg/injection, schedule: Q01DX009 (ip), vehicle: saline",6 of 10
COc1ccc2cc3[n+](c(CC(=O)O)c2c1OC)CCc1cc2c(cc1-3)OCO2,T/C,"dose: 20.0 mg/kg/injection, schedule: Q01DX009 (ip), vehicle: water",132 % of control [5 of 6 alive]
COc1cc2c(c(OC)c1OC)-c1ccc(SCc3ccccc3)c(=O)cc1[C@@H](NC(C)=O)CC2,T/C,"dose: 3.12 mg/kg/injection, schedule: Q01DX009 (ip), vehicle: Klucel (hydroxypropylcellulose) (HPC)",145 % of control
same,T/C,"dose: 6.25 mg/kg/injection, schedule: Q01DX009 (ip), vehicle: Klucel (hydroxypropylcellulose) (HPC)",148 % of control
same,T/C,"dose: 12.5 mg/kg/injection, schedule: Q01DX009 (ip), vehicle: Klucel (hydroxypropylcellulose) (HPC)",125 % of control
same,T/C,"dose: 12.5 mg/kg/injection, schedule: Q01DX009 (ip), vehicle: saline with Tween-80",130 % of control
same,survivor count,[9],2 of 6 and 3 of 6
same,survivor count,[3],4 of 6
same,survivor count,[10],0 of 6
N=C(N)C(Cl)(Cl)Cl,survivor count,[4],1 of 6
same,survivor count,[5],0 of 6
O=C1c2ccccc2C(=O)c2c(NC(=O)C(F)(F)F)cccc21,survivor count,[1],6 of 6
same,survivor count,[2],6 of 6
CC(Cc1ccccc1)N(C)C1=C(CCC#N)CC(C(C)(C)C)CC1 (centres undefined),survivor count,[11],5 of 6
Brc1ccc(-c2cnc3nc4[nH]c5ccccc5c4nn23)cc1,survivor count,[7],6 of 6
same,survivor count,[8],6 of 6
CCC1=C[C@@H]2C[C@](C(=O)OC)(c3cc4c(cc3OC)N(C)[C@H]3[C@@](O)(C(=O)NC)[C@H](OC(C)=O)[C@]5(CC)C=CCN6CC[C@]43[C@@H]65)c3[nH]c4ccccc4c3CCN(C1)[C@@H]2O,T/C,"dose: 0.78 mg/kg/injection, schedule: Q01DX001 (ip), vehicle: water",130 % of control
same,T/C,"dose: 1.56 mg/kg/injection, schedule: Q01DX001 (ip), vehicle: water",133 % of control
same,survivor count,"dose: 6.25 mg/kg/injection, schedule: Q01DX001 (ip), vehicle: water",1 of 3 and 2 of 3
same,T/C,[12],127 % of control [2 of 3 alive]
same,survivor count,[12],1 of 3
same,survivor count,"dose: 25.0 mg/kg/injection, schedule: Q01DX001 (ip), vehicle: water","0 of 3, 1 of 3, 2 of 3"
same,survivor count,"dose: 50.0 mg/kg/injection, schedule: Q01DX001 (ip), vehicle: water",0 of 3
same,survivor count,"dose: 100.0 mg/kg/injection, schedule: Q01DX001 (ip), vehicle: water",0 of 3
same,survivor count,"dose: 200.0 mg/kg/injection, schedule: Q01DX001 (ip), vehicle: water",0 of 3
same,survivor count,"dose: 400.0 mg/kg/injection, schedule: Q01DX001 (ip), vehicle: water",0 of 3
CN(C)CCC1c2ccc(Cl)cc2CCc2cccnc21 (centres undefined) (tested in a mixture with another compound),survivor count,[11],0 of 6
CCCCc1ccc2nc(C)cc(N/N=C/c3ccc4c(c3)OCO4)c2c1,survivor count,[1],6 of 6
Cc1cccc2ncc([N+](=O)[O-])n12,T/C,[5],129 % of control
same,survivor count,[5],6 of 6
same,survivor count,[6],0 of 6
NCC(=O)O.[Cl][Ga]([Cl])[Cl],survivor count,"dose: 200.0 mg/kg/injection, schedule: Q04DX003 (ip), vehicle: saline sonified",4 of 6
same,survivor count,"dose: 400.0 mg/kg/injection, schedule: Q04DX003 (ip), vehicle: saline sonified",2 of 6
Nc1cccc(SC2CC(=O)N(c3ccc4c(c3)OCO4)C2=O)c1 (centres undefined),survivor count,"dose: 400.0 mg/kg/injection, schedule: Q04DX003 (ip), vehicle: Klucel (hydroxypropylcellulose) (HPC)",4 of 6
CC1(C)CCCC2(C)C1CCC1(C)OC(/C(=C\CO)CO)CC12 (centres undefined),survivor count,"dose: 200.0 mg/kg/injection, schedule: Q01DX009 (ip), vehicle: Klucel (hydroxypropylcellulose) (HPC)",6 of 6
O=C(Nc1ccc(S(=O)(=O)F)cc1)/C(=C/c1ccc([N+](=O)[O-])cc1)c1ccccc1,survivor count,[13],2 of 6
O=C(O)C1Cc2c([nH]c3ccccc23)C(CCCCO)N1 (centres undefined),survivor count,[9],0 of 6
same,survivor count,[10],0 of 6
CC1=CC(O)C(O)C2(C)C1CC1OC(=O)C(OC3OC(CO)C(O)C(O)C3O)C3C(C)C(O)C4(O)OCC13C42 (centres undefined),survivor count,"dose: 4.25 mg/kg/injection, schedule: Q01DX005 (ip), vehicle: water",3 of 6
same,survivor count,"dose: 8.5 mg/kg/injection, schedule: Q01DX005 (ip), vehicle: water",2 of 6
same,survivor count,"dose: 17.0 mg/kg/injection, schedule: Q01DX005 (ip), vehicle: water",0 of 6
CCCCCCCCCCCC[N+]1([O-])CCCC1,survivor count,"dose: 50.0 mg/kg/injection, schedule: Q01DX009 (ip), vehicle: saline",6 of 6
same,survivor count,"dose: 100.0 mg/kg/injection, schedule: Q01DX009 (ip), vehicle: saline",0 of 6
same,survivor count,"dose: 200.0 mg/kg/injection, schedule: Q01DX009 (ip), vehicle: saline",0 of 6
O=C(O)c1cc(N=C=S)ccc1-c1c2ccc(=O)cc-2oc2cc(O)ccc12,survivor count,[13],0 of 6

# — PubChem BioAssay AID330 (DTP/NCI, 2004)
